Experimental data: PubChem BioAssay AID743121 (NCATS, 2013)
In all, the deposit lists about 26,000 reagents; this is a random part of them. In the full data, 167 (0.63%) got an active call. 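Calls are per gene from RSA p-values that are not deposited; an individual active-marked siRNA can sensitise only weakly.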 Reagents against one gene are numbered here. Further read-outs or replicates are left out here. No sequences are given here.

- Aim: 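Genes whose silencing strengthens cell killing by camptothecin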 (primary screen)
- Cell system: MDA-MB-231 cells, a human breast cancer line
- Reagent: single siRNA against human genes, 20 nM siRNA (0.8 pmol per well)
- Timing: 120 h (drug added 48 h after transfection, read 72 h later)
- Conditions: camptothecin 20 nM (about EC30) for 72 h; vehicle 0.1% DMSO in parallel plates
- Read-out: 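CellTiter-Glo ATP signal, scaled to control siRNA as percent viability; sensitisation given as log2 of untreated divided by camptothecin-treated viability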
- Reading the numbers: log2 vehicle/camptothecin viability: higher = stronger sensitisation to camptothecin; viability with camptothecin: higher = more viable cells
- Call rule: 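Active genes have an RSA gene-level p-value below 0.001, computed from the ratios of their separate siRNAs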

gene,reagent,log2 vehicle/camptothecin viability,viability with camptothecin (% of control),Call
FYN,1,0.183,82.5,inactive
FYN,2,-0.347,52,inactive
FYN,3,0.0781,67.1,inactive
FYN,4,-0.222,86.5,inactive
IL1R1,1,0.32,43.7,inactive
IL1R1,2,0.639,62,inactive
IL1R1,3,-0.124,97.3,inactive
BMP3,1,-0.293,51.9,inactive
BMP3,2,-0.345,45.2,inactive
BMP3,3,-0.161,94.6,inactive
CHEK1,1,0.213,30.1,active
CHEK1,2,0.224,28.6,active
CHEK1,3,0.19,49,active
CHEK1,4,0.249,35.4,active
MAP3K13,1,-0.0726,35.3,inactive
MAP3K13,2,0.31,55.7,inactive
MAP3K13,3,-0.198,17.4,inactive
MAP3K13,4,-0.361,61.5,inactive
TNPO1,1,-0.326,98.3,inactive
TNPO1,2,-0.0757,69.6,inactive
TNPO1,3,-0.0515,120,inactive
TNPO1,4,0.154,52.2,inactive
LIPG,1,-0.76,82,inactive
LIPG,2,-0.39,83,inactive
LIPG,3,-0.405,57.1,inactive
DCC,1,0.888,18.5,inactive
DCC,2,-0.495,91.9,inactive
DCC,3,-0.38,92.7,inactive
DCC,4,-0.493,124,inactive
ALX4,1,-0.418,84.4,inactive
ALX4,2,0.0864,81.5,inactive
ALX4,3,1.06,32.9,inactive
ALX4,4,0.799,6.5,inactive
PSMC4,1,-0.15,13.1,inactive
PSMC4,2,-0.742,1.23,inactive
PSMC4,3,0.0931,6.03,inactive
RIPK2,1,-0.0932,90.6,inactive
RIPK2,2,0.284,42.3,inactive
RIPK2,3,0.105,92.1,inactive
RIPK2,4,-0.0202,59.8,inactive
RAB21,1,-0.128,62.3,inactive
RAB21,2,-0.3,91.9,inactive
RAB21,3,-0.317,81.9,inactive
RAB21,4,0.035,56,inactive
PLG,1,-0.401,17.9,inactive
PLG,2,-0.328,57.3,inactive
PLG,3,-0.112,77.8,inactive
BPHL,1,-0.0906,97.2,inactive
BPHL,2,-0.356,125,inactive
BPHL,3,-0.357,70,inactive
BPHL,4,0.126,91.3,inactive
F2,1,-0.0204,104,inactive
F2,2,-0.218,79.8,inactive
F2,3,0.2,80.7,inactive
TAS2R60,1,0.0507,43.4,inactive
TAS2R60,2,-0.14,45.7,inactive
TAS2R60,3,0.172,51,inactive
TAS2R60,4,-0.0244,37.3,inactive
USP43,1,-0.00314,83.3,inactive
USP43,2,-0.315,89.7,inactive
USP43,3,-0.149,41.6,inactive
BLTP1,1,-0.0258,113,inactive
BLTP1,2,-0.249,102,inactive
BLTP1,3,-0.0486,125,inactive
BLTP1,4,-0.106,103,inactive
BLTP1,5,-0.18,106,inactive
BLTP1,6,0.106,106,inactive
BLTP1,7,-0.264,97,inactive
BLTP1,8,-0.225,88.5,inactive
CPA2,1,-0.154,44.6,inactive
CPA2,2,-0.0869,74.9,inactive
CPA2,3,-0.17,81.2,inactive
CPA2,4,-0.24,94.3,inactive
CCT2,1,-0.139,66.2,inactive
CCT2,2,-0.442,46.3,inactive
CCT2,3,-0.471,65,inactive
CCT2,4,-1.76,28,inactive
CTRC,1,-0.446,31.4,inactive
CTRC,2,-0.178,108,inactive
CTRC,3,-0.154,79.6,inactive
CTRC,4,-0.376,27.2,inactive
IGFBP5,1,0.29,33.3,inactive
IGFBP5,2,-0.0564,86.1,inactive
IGFBP5,3,0.15,68.8,inactive
IGFBP5,4,-0.365,75.6,inactive
PIKFYVE,1,-0.582,93.2,inactive
PIKFYVE,2,-0.209,82.6,inactive
PIKFYVE,3,-0.412,56.4,inactive
PIKFYVE,4,-0.18,82.7,inactive
